Data: PubChem BioAssay AID1347426 (Functional Genomics Laboratory (NCATS/FGL), 2020)
Out of some 31,000 sequences screened, about 1,400 (4.5%) were called active.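 The calls were made as follows: active = median seed-adjusted z-score above 1 or below -1; inactive = the rest.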 Some of the results follow.

Test: Novel Modifiers of Survival Motor Neuron (SMN) Protein: Gene Identification via Genome-wide siRNA Screen;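 also: luminescence tracks full-length SMN protein made from the SMN2 reporter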
Conditions: HEK293T SMN2-luciferase reporter, siRNA knockdown, 72 h; actives lie on both sides
Outline: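 siRNA screen, 10418 genes ×3 siRNAs; 1 pmol/well, lipid reverse transfection into HEK293T SMN2-luc reporter line. 72 h, 37 °C, 5% CO2; ONE-Glo readout. Data: neg-ctrl normalized, log10, MAD; hit = MAD >1.0 or < -1.0.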

Sequence | median seed-adjusted z-score
CAGUGAACCACAAACAGUUTT against SCN2B | inactive: -0.65
AGGCAUCUGUACUUAAGAATT against ZFP57 | inactive: -0.267
AGACUUUCCAGCAUCCAUATT against KREMEN1 | inactive: 0
CCAGUAAUAUAGUAGUAAATT against MAPK8 | inactive: 0.316
CGUGUUUGCUAUGAUUAAATT against GP5 | inactive: -0.286
ACAAUCAACUAAGCCCUUUTT against MS4A7 | inactive: 0.0794
CCAACUUAACCAACAUAGATT against SENP5 | inactive: 0.215
UCUUCUACCUCAACAUGUATT against GPR17 | inactive: -0.309
GAUUGAAACUGACAAGACATT against DLST | active: 1.16
CAAUAGCUGAAAUAAUAGATT against KPNA3 | inactive: 0.383
GAACUCUACGGGAAUUUCATT against CA11 | inactive: -0.0741
CUGUCCUCUCUAAACAGUATT against MRGPRX4 | inactive: -0.113
GCAUCGCAGAAGUUGCUAATT against PAPSS1 | inactive: -0.648
ACAAGAGUAUGUUAUUUAATT against NDUFB1 | inactive: 0
CUUUCUGAGUUAUCAUAUATT against NOX3 | inactive: 0.04
AGACAUUGUUGUUCUUGGUTT against PSMA7 | inactive: 0.0726
GGAAAAGAUUGAUGCGGUATT against MMP2 | inactive: 0.0467
UCUUCUACACCAAUAUCUATT against GPR4 | inactive: 0.563
GGCGUAGGUCUGUUCGAUATT against UBR2 | inactive: 0.632
AGAUGGAGUUGGUCCAGCATT against ADC | inactive: -0.157
CAAUAGCCACGUGAACCCUTT against COX6A2 | inactive: 0.714
GUAGGGUCCCUUAUUGUUATT against PCDHB9 | inactive: 0.516

Sequence | median seed-adjusted z-score
GAACUGGACGGACAACUAUTT against OGFR | inactive: -0.565
GAAAGAUGGUGUUGACUUUTT against ALDOB | active: -1.34
GUGAGUACUUUACUAGAUATT against ADAM30 | inactive: 0.0576
GAAUUACUCUGCCUCUAAATT against TAF7 | inactive: -0.593
GACGAAAAGAUGAACAUUATT against ARFGAP3 | inactive: 0.00412
ACACCAGGAUGAACGAGGATT against PAK4 | inactive: -0.742
GCACAUGAGAUCUUCGAAATT against SUPV3L1 | inactive: -0.169
GAAACACGUCAGUCCUAAUTT against LHX8 | inactive: 0
GUCACUAGCUUAUCUUGAATT against VEGFA | inactive: 0.495
GAGUGUAUCCUGUUUAUUATT against PPP2R4 | inactive: 0.318
GGCCAUGAACCGCAUCUGUTT against GUK1 | inactive: -0.339
CCUUCAAGCUGCAGACUAATT against THBS4 | inactive: -0.28
GGCCUUUGCUGAGCAGAUATT against ADCK5 | inactive: 0.958
UCCUGUUCCUAGUCAUUUATT against GNGT2 | inactive: -0.289
CCAGUUUGAUUUCAAUAAATT against CENPB | inactive: 0.292
ACAGCGUGGUGUCUCCUCATT against PMM1 | inactive: -0.597
GCAUAGUAAUGUUCGUCAUTT against SLC12A2 | inactive: -0.4
GGCUUGUGCUAAUCAGAGATT against AK5 | inactive: -0.0461
GGUGAACUUCUACAACAAUTT against DPEP1 | inactive: -0.886
CCAGCAAAGAGGUCUAUCATT against GCNT3 | inactive: 0
GCAGAACCGUGAAAAAGGATT against DERA | inactive: -0.197
GAAGAAAACGAAAUGAUCATT against MLN | inactive: -0.422

Another view of some results above:
GAACUGGACGGACAACUAUTT against OGFR
  median seed-adjusted z-score: inactive: -0.565
GAAAGAUGGUGUUGACUUUTT against ALDOB
  median seed-adjusted z-score: active: -1.34
GUGAGUACUUUACUAGAUATT against ADAM30
  median seed-adjusted z-score: inactive: 0.0576
GAGUGUAUCCUGUUUAUUATT against PPP2R4
  median seed-adjusted z-score: inactive: 0.318

Later entries.

Sequence | median seed-adjusted z-score
CAGACAUACUCCAUAGAUATT against RHEB | inactive: -0.387
CCCUUAGUCAGUUCCCAGATT against KCNA10 | inactive: 0.00887
ACAGAAAGCCUGAGCUUGATT against SLC7A5 | inactive: 0.00397
GCCCAUUGGUUUCCGAGAATT against CMYA5 | inactive: -0.858
GGACAGCUUUUGAUUUAUUTT against INTS6 | inactive: -0.0163
GGAGGACUAGGCUCCAUUATT against ARPC5L | inactive: -0.36
GGAAUUACGGAGAUAUAGATT against TRRAP | active: -1.25
AGAUGAUCUUGUUUCAUCUTT against NRXN3 | inactive: 0.897
GUAUCGGAACAGUACAACATT against ABCA5 | inactive: -0.376
CCAUGAUCAUGGACUCCAUTT against FAM62A | inactive: -0.34
AUAUUAACCUGGUACAUGATT against ATP5L | inactive: -0.295
GGGCAAUGAUAGAAAGAAUTT against STK35 | inactive: 0.519
CAACUACAGUUUCUCAACATT against EYA3 | inactive: -0.0191
GGACUACACGUACUUCUCATT against KIRREL3 | inactive: -0.206
CGACAGGAGUGGUUCUAGATT against ACTR1B | inactive: -0.18
GAAUCUUAGUCAACAUGGATT against GRHL3 | inactive: -0.0434
GCUUGAUAAUAAGCAUACATT against PPWD1 | inactive: -0.341
GCAUUGAUGGUAACAUGCATT against KIF3A | inactive: 0.119
GCUCUUACUUUGGAUAUCATT against MYO9A | inactive: -0.567
CCAACUCCAUCAGUUCCAATT against PAX6 | inactive: -0.275
GUGCUACCGCAGAACCAGATT against CACNG7 | inactive: -0.403
GGAUAAUCAGUAGAAUUCUTT against AGMAT | inactive: -0.0269

Sequence | median seed-adjusted z-score
CGAAUAGCCUAUGAAGUCATT against AOC2 | inactive: 0
CGGCUAGAAGAGGAACAGATT against LSG1 | active: 1.31
GGAUGACUACAGGCAAGAATT against GPA33 | inactive: 0.138
GCCUGACUCUAAUAUCCGATT against LBP | inactive: -0.207
GCUUUUGCAGGAGAAUGAATT against FGL1 | inactive: -0.259
GUUGACUACUUACACCUCATT against POLG | inactive: 0
GGUUUGCGUUCAGCAUUUATT against PPP3R2 | inactive: -0.143
CCAGAAUCACUAGAGCUGATT against MADD | inactive: 0.363
CAGCUAUCAUGGUGAACUUTT against NDUFB1 | inactive: 0
GGUUCAGCUUUAUCUAUAUTT against RNF145 | inactive: -0.554
AGCUUCAUCUCAGAGCCUATT against SLC7A10 | inactive: -0.732
CACUGUAACGACUUCCUUATT against CCIN | inactive: 0.0472
GGUGCUAACUUUGAGUACATT against ECHS1 | inactive: 0.0273
GGAUCUCAUGCACAUCUCATT against PLA2G6 | inactive: -0.123
GUGGAGAUGUCAACACCUATT against ZNF526 | inactive: 0.0265
GCAUAUUCCACUAUCCUAUTT against LNPEP | inactive: -0.386
CAAAGAUGCAGCUAACCUATT against KLC1 | inactive: -0.0912
CAAAAUAUGCAGUUGAAAATT against SDR16C5 | inactive: -0.0558
UCAUAUGUCUGGUAAUGCUTT against AMY2B | inactive: -0.564
CGCUCACGCUCGUCAUGUUTT against KCNK3 | inactive: 0
CAGAGGAACUGACACCAUUTT against ETFA | inactive: -0.0619
GAAAUCAUGUCUCAAUAUATT against PPP1R3C | inactive: 0

Sequence | median seed-adjusted z-score
GGAAGAUUGUGCACCGUGATT against SIK2 | inactive: 0.055
GGGCAUCAGUGCUAAUGGATT against PBX1 | inactive: -0.199
GCGACUACAAGGACAAGUATT against SPAG7 | inactive: 0.263
GCGCAAUACAUGCAAGAUATT against USP47 | inactive: 0.3
GGUUAGUCAUAAAGAUGUATT against CAPZA1 | inactive: -0.0237
GGCCUUCGGCUAAAAGAGATT against KIF22 | inactive: 0.283
GCCUGAACUUUUCCGAUUATT against RFC4 | inactive: -0.386
GGAGAUCACUGAUGAGUGUTT against MAPK8IP1 | inactive: 0.576
GCUUUUCCCGGUCAGAUCATT against KLF12 | inactive: -0.0892
UCAAGGAGCUCAUACAGGATT against SLC16A3 | inactive: -0.353
CUUCUAUGGUGUUUCGAAATT against TDRD7 | inactive: 0.11
GCCUCAAUGUGGAUAUGGATT against SYTL4 | inactive: 0.694
GGAUAUUAUUCAGUGGAGATT against PPP2CB | inactive: 0.486
AAGCAGAUACUAAAGGUUUTT against PLAGL1 | inactive: 0.0885
GGAGAGGAGUUAUCAGGAATT against GBP1 | inactive: -0.232
CUUACUAACCAUAAAGUAATT against ZNF680 | inactive: 0.142
GUCUCUGACGGGUCCAUUATT against BMP1 | inactive: -0.298
CGUUAACUGCAGACGUAAATT against KIF18A | inactive: -0.159
UGCUUAUGAUCAACAUUUATT against LSM3 | active: -1.36
GGCUGACAGUAGCUAAGCUTT against RAPGEF4 | inactive: -0.197
